This is one part of the list. These are further read-outs of the screen, such as a control signal, another cell line or another target. No call is given for them. The list favours compounds with an active or inconclusive main result. The note in brackets gives the kind of curve behind each potency; many fits are weak.

The nature of the test: qHTS Assay to Find Inhibitors of Chronic Active B-Cell Receptor Signaling. As to conditions: ABC-DLBCL IkBa-CBG/CBR reporter, luminescence ratio (green luciferase fused to IkBa over red control in TMD8 lymphoma cells), 4 h. Put shortly: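 Doxycycline induced both beetle luciferases in TMD8 lymphoma cells; IKK-driven degradation limits the IkappaBalpha-fused green signal, while red luminescence normalises for cell number and nonspecific effects. Compounds tested up to 46 uM, 4 hrs.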

Where [1] appears, read: measured here: CBR red luminescence, cell number.
Setting [2] is: measured here: IkBa-CBG green luminescence.

As for `CC(C)=NNc1nc(-c2ccc([N+](=O)[O-])cc2)cs1`, the concentration at half-maximal activity (AC50) under setting [1] was 1.26 µM [rising, full curve, poor fit].
For `COc1cc2c(C#N)c(N3CCCC3)nc(N)c2c(N)n1`, under setting [1], the AC50 is 0.178 µM [falling, full curve, poor fit].
Consider `CC1=NN(C(N)=S)C(=O)C1N=Nc1cccc(Cl)c1` (stereo unspecified), for which the AC50 under setting [2] was 2.82 µM [falling, single point].
Consider `COc1ccc(/C=N/NC(=S)Nc2ccccc2)cc1COc1ccccc1F`, for which the AC50 under setting [1] is 20.6 µM [rising, partial curve].
Consider `CCOC(=O)c1c(CC(C)C)csc1NC(=O)CCl`, for which the half-maximal activity concentration (AC50) under setting [1] is 20.6 µM [falling, single point].
`Cc1ccc(OCc2nnc(SC(C)C(=O)O)n2Cc2ccccc2)cc1` (stereo unspecified): the AC50 under setting [1] is 0.112 µM [falling, full curve, poor fit].
The same measure, in the same setting: next, `CN(C)CCCN(C(=O)c1ccc2c(c1)CCCC2)c1nc2ccc(Cl)cc2s1`: 13 µM [falling, partial curve]; `COc1ccc(Nc2nc(-c3ccc(OC)cc3)cs2)cc1`: 0.562 µM [rising, full curve, poor fit].
Take `COc1cc(C(=O)N/N=C/c2sccc2C)cc(OC)c1OC`: the half-maximal activity concentration (AC50) under setting [1] is 3.98 µM [rising, full curve, poor fit] and the AC50 under setting [2] was 7.08 µM [falling, partial curve].
Take `CCCCN(C(=O)c1ccc(N2C(=O)c3ccccc3C2=O)cc1)c1c(N)n(CC(C)C)c(=O)[nH]c1=O`: under setting [1], the AC50 is 3.26 µM [rising, single point].
Still for that read-out and setting: the value for `NC(=O)CC(NC(=O)Cc1ccc(Cl)cc1)c1ccc(NC2CCN(Cc3ccccc3)CC2)c([N+](=O)[O-])c1` (stereo unspecified) was 10 µM [falling, partial curve, poor fit]; that for `Cc1ccn(CC(=O)N2CCCC(C(=O)c3cccc4ccccc34)C2)n1` (stereo unspecified) was 14.1 µM [rising, single point].
Still for that read-out and setting: the value for `C/C(CCc1ccccc1)=N\NC(=O)c1ccccc1` was 11.6 µM [falling, partial curve]; that for `O=C1C2C3CC(C2C(=O)N1c1cccc(Cl)c1)[C@H](O)C3O` (stereo partly specified) was 11.2 µM [rising, partial curve, poor fit].
On the same count and under the same terms, next, `O=C(CCCCl)NC(=S)Nc1ccc(CN2CCOCC2)cc1`: 7.08 µM [falling, partial curve]; `CCc1c(C)nc2ncnn2c1N1CCCC(C(=O)Nc2cc(F)ccc2C)C1` (stereo unspecified): 4.61 µM [falling, partial curve, poor fit].
Consider `CCC1CCc2c(sc(NC(=O)c3ccco3)c2C(N)=O)C1` (stereo unspecified), for which, under setting [2], the AC50 is 9.2 µM [rising, partial curve, poor fit].
Turning to `O=C(O)C1CCN(C(=O)CSc2nc3ccccc3s2)CC1`, under setting [1], the AC50 was 2.82 µM [falling, full curve].
Still for that read-out and setting: the value for `CC(=O)c1ccc(S(=O)(=O)NC(=O)NC2CCCCC2)cc1` was 32.6 µM [falling, single point].
The same measure, in the same setting: next, `CC(=O)c1ccccc1Oc1ncnc(N)c1[N+](=O)[O-]`: 12.6 µM [rising, single point]; `CCCc1cc(=O)n2[nH]c(NCc3cccs3)nc2n1`: 16.4 µM [falling, partial curve, poor fit]; `O=C(N/N=C/c1ccc(F)cc1)c1ccc(OCc2ccccc2)cc1`: 12.6 µM [rising, single point].
The same measure, in the same setting: next, `CCc1ccccc1NC(=O)CCS(=O)(=O)c1ccc(OC)cc1`: 0.708 µM [rising, full curve, poor fit].
Regarding `O=C(Cc1ccc(Cl)cc1)Nc1ccc(SC(F)F)cc1`, the AC50 under setting [1] is 0.92 µM [rising, full curve, poor fit].
Same read-out and setting: next, `CCOC(=O)c1[nH]c(C)c(C(=O)N2CCN(c3cccc(Cl)c3)CC2)c1C`: 4.61 µM [falling, single point]; `Cc1cc(NC(=O)c2cc(-c3ccccc3Cl)nc3ccccc23)no1`: 10 µM [falling, partial curve, poor fit].
On the same count and under the same terms, next, `CC(C)Cn1c(N)c(C(=O)COC(=O)c2cccc(Cl)c2)c(=O)n(C)c1=O`: 3.55 µM [rising, partial curve, poor fit]; `CC1=NN(c2ccccc2)C(=O)C1N=Nc1ccc(S(N)(=O)=O)cc1` (stereo unspecified): 10 µM [falling, partial curve, poor fit].
`COc1ccccc1/C=C/C(=O)OCC(=O)Nc1ccc2c(c1)OCO2`: the AC50 under setting [1] was 0.146 µM [falling, partial curve, poor fit].
For the compound `O=c1cc(N=Nc2ccc(Cl)cc2)[nH]c(=O)[nH]1`, the AC50 was 2.24 µM [falling, full curve, poor fit] under setting [1] and 3.16 µM [rising, full curve, poor fit] under setting [2].
As to `O=C(N/N=C/c1c[nH]c2ccccc12)c1ccn(Cc2ccc(Cl)cc2)n1`, the concentration at half-maximal activity (AC50) under setting [1] is 11.2 µM [falling, partial curve].
For the compound `CC(C)Sc1ccc(C(=O)Nc2ccc(F)cc2F)cn1`, the AC50 under setting [1] was 5.01 µM [falling, partial curve, poor fit].
On the same count and under the same terms, next, `CC(C)(C)OC(=O)N1CCN(C(=O)Cn2cc(CCO)nn2)CC1`: 35.5 µM [rising, partial curve, poor fit]; `Cc1ccc(-c2cnc(-c3ccncc3)o2)cc1`: 2.59 µM [rising, full curve, poor fit]; `O=C(Nc1cccc(S(=O)(=O)C(F)F)c1)c1ccc(Cl)c(S(=O)(=O)N2CCOCC2)c1`: 29.1 µM [falling, single point].
The same measure, in the same setting: the value for `O=C(Nc1ccccc1)c1ccc2c(c1)OCCCO2` was 3.98 µM [falling, full curve]; that for `Cc1cc(C)cc(N(C(=O)c2csnn2)C(C(=O)NC2CCCCC2)c2cccnc2)c1` (stereo unspecified) was 6.31 µM [rising, single point]; that for `O=C(NN=C1CCCCCCCCCCC1)c1ccccc1F` was 16.4 µM [falling, partial curve].
On the same count and under the same terms, next, `O=C(Cc1ccccc1)NNC(=O)Nc1ccc(Cl)c(Cl)c1`: 20.6 µM [falling, single point]; `C=CCC[C@@H](Cc1ccc(F)cc1)C(=O)OC[C@@H](Cc1ccccc1)NC(=O)[C@@H](CC=C)CC(=O)N[C@@H](CO)Cc1ccccc1`: 0.103 µM [rising, full curve, poor fit]; `CN(CCO)CC(O)Cn1cnc2c1c(=O)n(C)c(=O)n2C` (stereo unspecified) (tested in a mixture with another compound): 29.1 µM [rising, single point].
For `CNC(=S)N1CCN(c2nc3ccccc3s2)CC1`, the AC50 under setting [1] was 31.6 µM [falling, single point].
Still for that read-out and setting: next, `CSC1=NCCN1S(=O)(=O)c1ccc(NC(C)=O)cc1`: 6.31 µM [rising, single point]; `CN(C(=O)COC(=O)CSCc1cccc(Cl)c1)c1c(N)n(Cc2ccccc2)c(=O)[nH]c1=O`: 1.16 µM [rising, full curve].
On to `Cc1[nH][nH]c(=O)c1C(c1ccc(O)c([N+](=O)[O-])c1)c1c(C)[nH][nH]c1=O`, for which the half-maximal activity concentration (AC50) is 9.2 µM [falling, partial curve] under setting [1] and 23.1 µM [rising, partial curve, poor fit] under setting [2].
`CCc1ccc(-c2cc(C(=O)N/N=C/c3c[nH]c4ccccc34)[nH]n2)cc1`: the AC50 under setting [1] is 22.4 µM [falling, single point].
The same measure, in the same setting: the value for `COc1ccc(C2C(C#N)=C(C)NC3=C2C(=O)CC(C)(C)C3)c(OC)c1` (stereo unspecified) was 5.17 µM [rising, full curve, poor fit].
Still for that read-out and setting: next, `CCOC(=O)c1cc(-c2ccccc2C)n(Cc2cc(C)no2)n1`: 8.2 µM [falling, partial curve, poor fit]; `CCCCOc1ccc(CSc2ncn[nH]2)cc1`: 11.2 µM [falling, partial curve]; `N/C(=N\OC(=O)c1ccco1)c1ccccc1`: 2.91 µM [rising, partial curve].
Same read-out and setting: the value for `C/C(=N\N=c1/scc(C)n1Cc1ccco1)c1cccc([N+](=O)[O-])c1` was 4.61 µM [rising, partial curve]; that for `Cc1ccc(OCc2nc(-c3ccccc3)no2)cc1` was 35.5 µM [falling, single point].
For the compound `CCOc1cc(C(=O)OCc2ccc(OC)cc2)ccc1OCC(=O)N1CCOCC1`, the AC50 is, setting by setting: under setting [1], 6.51 µM [falling, single point]; under setting [2], 7.31 µM [rising, partial curve, poor fit].
In the case of `Fc1ccccc1CN1CCCN(C(=S)Nc2cccc(Cl)c2)C1`, under setting [1], the concentration at half-maximal activity (AC50) is 11.2 µM [falling, partial curve].
Same read-out and setting: the value for `CN(C)C(=O)c1ccc(NC(=O)COC(=O)/C=C/c2cccs2)cc1` was 1.3 µM [falling, partial curve, poor fit].
As to `Cc1cc(C)cc(NS(=O)(=O)c2ccc(NC(=S)Nc3ccccc3)cc2)c1`, the AC50 under setting [1] was 2.31 µM [falling, partial curve, poor fit].
Still for that read-out and setting: the value for `O=C(/C=C/c1cccnc1)c1ccc(O)cc1` was 17.8 µM [falling, partial curve, poor fit].
Same read-out and setting: the value for `CCOC(=O)c1cc(-c2ccccc2)n(CCC(=O)Nc2ccccc2CC)c1C` was 2.24 µM [rising, partial curve, poor fit]; that for `N#Cc1ccc(C(=O)NC2CCCCCCC2)cc1` was 12.6 µM [falling, partial curve, poor fit]; that for `CCC(=O)N1CCCc2cc(S(=O)(=O)NCc3cccs3)ccc21` was 1.64 µM [rising, full curve, poor fit].
The same measure, in the same setting: the value for `N/C(=N\OC(=O)CCCN1C(=O)c2ccccc2C1=O)c1ccccn1` was 1.26 µM [rising, partial curve, poor fit]; that for `CC(C)CNC(=O)CC(=O)N/N=C/c1ccc(Br)cc1` was 2.51 µM [falling, full curve, poor fit].

As a reminder, the AC50 is the concentration giving half of the maximal activity seen.

These data come from PubChem BioAssay AID493014 (National Center for Advancing Translational Sciences (NCATS), 2011).
